Measurements reported in PubChem BioAssay AID1259405 (NCATS, 2018).
In all, the deposit lists about 50,000 reagents; shown is a part drawn at random. About 4,000 of them (8%) were called active. 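Mouse siRNA library applied to hamster cells; one well for each siRNA.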 The numbers tell different reagents against one gene apart. Reagent sequences are not shown.

Assay: 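Knock-downs that lift recombinant protein yield in hamster ovary cells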 (primary screen)
Cells: Chinese hamster CHO-K1 ovary cells with stable secreted eGFP expression
Reagents: single siRNA against mouse genes, 0.8 pmol siRNA per well (2 µl of 400 nM stock)
Timing: 3 days
Measured: 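Percent of the per-plate non-targeting control median for intracellular GFP per well by laser scanning cytometry and for cell viability by ATP luminescence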
Reading the numbers: GFP, % of control: higher = more GFP per well, higher productivity; viability (ATP), % of control: higher = more viable cells (more ATP)
Rule for the call: 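a knock-down is called active if GFP reaches 120% or more of non-targeting control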

| Gene | reagent no. | GFP, % of control | viability (ATP), % of control | activity call |
| --- | --- | --- | --- | --- |
| Jpt1 | 1 | 108 | 115 | inactive |
| Jpt1 | 2 | 88.8 | 71 | inactive |
| Jpt1 | 3 | 87.7 | 77.1 | inactive |
| Esx1 | 1 | 66.9 | 85.1 | inactive |
| Esx1 | 2 | 57.1 | 89.5 | inactive |
| Esx1 | 3 | 85.7 | 84.2 | inactive |
| BC024139 | 1 | 55.2 | 99.3 | inactive |
| BC024139 | 2 | 79.5 | 56.2 | inactive |
| BC024139 | 3 | 212 | 147 | active |
| Rgs16 | 1 | 85.6 | 90 | inactive |
| Rgs16 | 2 | 58.9 | 53.7 | inactive |
| Rgs16 | 3 | 76.5 | 48.8 | inactive |
| Vps26b | 1 | 60.7 | 77 | inactive |
| Vps26b | 2 | 112 | 94.1 | inactive |
| Vps26b | 3 | 80.9 | 83.4 | inactive |
| Ctdp1 | 1 | 59.5 | 78 | inactive |
| Ctdp1 | 2 | 116 | 83.8 | inactive |
| Ctdp1 | 3 | 88 | 63.5 | inactive |
| Wnt7b | 1 | 81.5 | 53.1 | inactive |
| Wnt7b | 2 | 60.7 | 49.8 | inactive |
| Wnt7b | 3 | 69.6 | 81.2 | inactive |
| Myo5a | 1 | 79.2 | 63.7 | inactive |
| Myo5a | 2 | 63.2 | 67 | inactive |
| 4930519G04Rik | 1 | 86.3 | 87.3 | inactive |
| 4930519G04Rik | 2 | 117 | 100 | inactive |
| 4930519G04Rik | 3 | 68.5 | 85.6 | inactive |
| Nek4 | 1 | 45.6 | 37 | inactive |
| Gpld1 | 1 | 115 | 77.6 | inactive |
| Gpld1 | 2 | 92.7 | 82.7 | inactive |
| Gpld1 | 3 | 94.5 | 130 | inactive |
| Hacd2 | 1 | 90.6 | 129 | inactive |
| Hacd2 | 2 | 86 | 71.9 | inactive |
| Mus81 | 1 | 57.4 | 68.7 | inactive |
| Mus81 | 2 | 168 | 55.5 | active |
| Mus81 | 3 | 58.7 | 68.9 | inactive |
| Mus81 | 4 | 91.8 | 99.8 | inactive |
| Mus81 | 5 | 120 | 70.4 | active |
| Mus81 | 6 | 85.3 | 78.7 | inactive |
| Map2k2 | 1 | 96.4 | 83.9 | inactive |
| Myl1 | 1 | 86.8 | 100 | inactive |
| Myl1 | 2 | 79.1 | 85.1 | inactive |
| Bmp15 | 1 | 85.1 | 81.6 | inactive |
| Bmp15 | 2 | 47.3 | 47.5 | inactive |
| Bmp15 | 3 | 78.3 | 54 | inactive |
| Tmem126a | 1 | 64.8 | 64.4 | inactive |
| Tmem126a | 2 | 77.6 | 80.6 | inactive |
| Tmem126a | 3 | 62.4 | 88 | inactive |
| Clk4 | 1 | 58.2 | 58.6 | inactive |
| Nlrp4c | 1 | 57.2 | 52.6 | inactive |
| Nlrp4c | 2 | 97.3 | 69.9 | inactive |
| Nlrp4c | 3 | 58 | 51.9 | inactive |
| Ccdc88c | 1 | 88 | 81.4 | inactive |
| Ccdc88c | 2 | 49.5 | 57.9 | inactive |
| Ccdc88c | 3 | 86 | 109 | inactive |

7 entries from above, limited to “viability (ATP), % of control”.
Wnt7b #2: 49.8
Wnt7b #3: 81.2
Myo5a #1: 63.7
Myo5a #2: 67
4930519G04Rik #1: 87.3
4930519G04Rik #2: 100
4930519G04Rik #3: 85.6

More entries follow.
| Gene | reagent no. | GFP, % of control | viability (ATP), % of control | activity call |
| --- | --- | --- | --- | --- |
| Or7g17 | 1 | 45.9 | 59.4 | inactive |
| Or7g17 | 2 | 73.3 | 56 | inactive |
| Or7g17 | 3 | 73.5 | 72.7 | inactive |
| Rpl12 | 1 | 55.7 | 22.7 | inactive |
| Rpl12 | 2 | 57.2 | 22.9 | inactive |
| Rpl12 | 3 | 150 | 69 | active |
| Cfap300 | 1 | 121 | 98.1 | active |
| Cfap300 | 2 | 91.7 | 90 | inactive |
| Cfap300 | 3 | 80.8 | 102 | inactive |
| Stmnd1 | 1 | 51 | 88.3 | inactive |
| Stmnd1 | 2 | 51.4 | 56 | inactive |
| Stmnd1 | 3 | 78 | 71.3 | inactive |
| Vit | 1 | 30.4 | 26.9 | inactive |
| Vit | 2 | 107 | 82.6 | inactive |
| Vit | 3 | 83.1 | 81 | inactive |
| Cops7b | 1 | 85.8 | 98.9 | inactive |
| Cops7b | 2 | 62 | 50.2 | inactive |
| Cops7b | 3 | 124 | 128 | active |
| Rbp2 | 1 | 112 | 101 | inactive |
| Rbp2 | 2 | 104 | 108 | inactive |
| Rbp2 | 3 | 71.2 | 95.8 | inactive |
| Ubl4a | 1 | 81 | 66.4 | inactive |
| Ubl4a | 2 | 44.7 | 46 | inactive |
| Ubl4a | 3 | 65 | 59 | inactive |
| Prox1 | 1 | 74.9 | 81.8 | inactive |
| Prox1 | 2 | 113 | 92.4 | inactive |
| Prox1 | 3 | 83.4 | 105 | inactive |
| 5730522E02Rik | 1 | 84.7 | 80.2 | inactive |
| 5730522E02Rik | 2 | 73.8 | 75.8 | inactive |
| 5730522E02Rik | 3 | 121 | 111 | active |
